Screen size: about 320,000 compounds; about 620 (0.19%) were called active. This list was built around the results that the source calls inconclusive (neither active nor inactive); the mix of calls is not that of the screen. Rule as the data show it: active = activation above about 80%; inconclusive = between about 30% and that limit; inactive = weaker than that.
molecular target: Transient receptor potential cation channel subfamily V member 1 (Homo sapiens) (UniProt Q8NER1); assay: HTS Assay for Compounds that Act as Agonists of the Vanilloid Receptor 1; conditions: TRPV1-expressing cells, Fluo-8 calcium influx, agonist mode; at 8.33 µM, stronger effect = higher value; also: 0% is about no effect
Summary of the method: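 Cells expressing TRPV1 were dye-loaded with Fluo-8 and read kinetically: 10 s baseline, 3 min after compound (agonist portion), then 2 min after EC20 capsaicin (allosteric enhancer portion). Calcium-bound dye fluorescence at 480/520 nm.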

By UniProt entry, the sequences of proteins in these tests, tags left out.
UniProt Q8NER1, whole entry, looked up: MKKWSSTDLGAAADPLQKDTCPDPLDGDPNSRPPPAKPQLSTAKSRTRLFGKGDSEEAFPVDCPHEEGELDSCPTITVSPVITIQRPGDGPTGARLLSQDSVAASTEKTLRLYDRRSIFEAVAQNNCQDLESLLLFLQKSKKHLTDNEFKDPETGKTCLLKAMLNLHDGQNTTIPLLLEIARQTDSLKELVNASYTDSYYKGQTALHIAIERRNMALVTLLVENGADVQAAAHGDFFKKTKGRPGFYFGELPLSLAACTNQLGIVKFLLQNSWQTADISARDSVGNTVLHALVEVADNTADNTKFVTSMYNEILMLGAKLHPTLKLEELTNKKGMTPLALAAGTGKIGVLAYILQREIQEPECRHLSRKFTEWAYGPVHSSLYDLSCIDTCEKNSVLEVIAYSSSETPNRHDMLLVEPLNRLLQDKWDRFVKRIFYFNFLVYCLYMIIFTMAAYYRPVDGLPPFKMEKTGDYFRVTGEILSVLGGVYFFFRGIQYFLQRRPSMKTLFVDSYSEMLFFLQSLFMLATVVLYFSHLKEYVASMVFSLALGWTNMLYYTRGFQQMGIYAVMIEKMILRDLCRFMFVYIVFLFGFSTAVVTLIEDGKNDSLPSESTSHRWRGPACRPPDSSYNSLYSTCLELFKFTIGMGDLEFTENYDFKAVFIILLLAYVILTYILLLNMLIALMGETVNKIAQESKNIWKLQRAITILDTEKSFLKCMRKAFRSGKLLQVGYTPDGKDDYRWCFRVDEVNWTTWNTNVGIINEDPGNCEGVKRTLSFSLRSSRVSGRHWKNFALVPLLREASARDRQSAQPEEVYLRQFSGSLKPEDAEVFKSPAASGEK

SMILES | activation
Cc1ccc(S(=O)(=O)N(CC(=O)Nc2cccc([N+](=O)[O-])c2)Cc2ccc(Cl)cc2)cc1 | inconclusive: 34.8%
CSCCC(NC(=O)c1ccc(Cl)cc1Cl)C(=O)N1CCCCCCC1 (stereo unspecified) | inconclusive: 30.7%
CCOC(=O)C1=C(C)N(C)C(C)=C(C(=O)OCC)C1c1ccsc1 | inconclusive: 36%
CC(=O)N1c2ccc(S(=O)(=O)N(C)c3cc(C)ccc3C)cc2CC1C (stereo unspecified) | inconclusive: 32.9%
Cc1ccc(OCCCCn2ccnc2C)c(C)c1 | inactive: 13.2%
C=CCCC(=O)Nc1nc(C)c(-c2csc(Nc3cccc(OC)c3)n2)s1 | inactive: 0.917%
CCOC(=O)Cc1csc(NC(=O)c2ccc3ncsc3c2)n1 | inconclusive: 40.2%
Cc1ccc(OCc2nnc(SCC(=O)c3ccccc3)n2-c2ccccc2)cc1 | inconclusive: 39.8%
CCC(=O)Nc1nonc1-c1nc2ccccc2n1CC(C)C | inconclusive: 30.1%
COc1ccccc1C(=O)Nc1nc(-c2ccc(S(=O)(=O)N3CCOCC3)cc2)cs1 | inconclusive: 33.9%
COc1ccc(NC(=O)NC2CCCCCCC2)cc1OC | inconclusive: 71.3%
COc1nc(-c2ccccc2)cc(-c2ccccc2)n1 | inconclusive: 55.4%
O=C(CSc1n[nH]c(-c2ccncc2)n1)NC1CCS(=O)(=O)C1 (stereo unspecified) | inactive: 0.416%
O=C(CCCN1C(=O)/C(=C/c2ccccc2Cl)SC1=S)N1CCOCC1 | inconclusive: 59.7%
Cc1ccc(C2=NS(=O)(=O)N(C)C(C(=O)Nc3cc(C)n(CC(=O)N4CCCCC4)n3)=C2)cc1 | inactive: -1.98%
Clc1cccc(-c2nc(NCC3CCCO3)c3ccccc3n2)c1 (stereo unspecified) | inconclusive: 58.3%
Cc1n(C)c2cc(Cl)ccc2[n+]1Cc1ccccc1 | inactive: 1.15%
CCO[C@H]1OC(C(=O)N2CCN(Cc3ccccc3)CC2)=C[C@@H](C2CCCCC2)[C@@H]1CCCO | inconclusive: 49%
O=C(NCc1ccccn1)Nc1ccccc1 | inconclusive: 55.5%
O=C(Nc1nc2cc3c(cc2s1)OCO3)C1CCCCC1 | inconclusive: 38.2%
Cc1c(C(=O)Nc2ccc(F)cc2)c2ccccn2c1CCc1ccncc1 | inactive: -3.01%
COC(=O)C1(C)NC(c2ccc(O)cc2)C2C(=O)N(c3ccc4c(c3)OCCO4)C(=O)C21 (stereo unspecified) | inactive: -3.76%

SMILES | activation
CCOC(=O)c1sc(N)c(C#N)c1COC(=O)C1=COCCO1 | inactive: -7.68%
COc1ccccc1CN(C)CC(=O)Nc1cccc2ccccc12 | inconclusive: 54.5%
COC(=O)c1ccc(Cn2cc(C(F)(F)F)cc([N+](=O)[O-])c2=O)cc1 | inactive: 1.4%
COC(=O)c1ccc(NC(=S)Nc2ccc(O)cc2)cc1 | inactive: -3.17%
CCn1c(SCC(=O)Nc2ccc(F)cc2)nc2ccccc2c1=O | inconclusive: 49.2%
O=C(N/N=C/c1ccc(-c2cccc([N+](=O)[O-])c2)o1)c1ccccc1O | inactive: 2.69%
COc1ccc(CCNC(=O)CCOc2ccc(C)cc2)cc1OC | inconclusive: 40.4%
Cc1ccc(C)c(CSCc2nc3ccccc3[nH]2)c1 | inconclusive: 77.2%
COC(=O)/C(N=Nc1cccc(C(F)(F)F)c1)=C(\C)O | inconclusive: 32.4%
O=C(NCc1nc2ccccc2[nH]1)C1=C[C@@H](c2ccccc2)C[C@@H](OCc2ccc(CO)cc2)O1 | inactive: 14.2%
C=CCOC(=O)C(C#N)c1nc2ccccc2nc1N1CCN(Cc2ccccc2)CC1 (stereo unspecified) | inactive: 0.811%
Cc1cccc(C)c1OCc1cc(C(=O)N2CCC(c3ccncc3)CC2)no1 | inconclusive: 70.9%
CC(/C=N/NC(=O)Cn1nccc1C)=C\c1ccc(C(C)C)cc1 | inconclusive: 67.8%
CCN1CC=C2C(C#N)=C(N)C(C#N)(C#N)[C@H](c3cccc(OC)c3OC)[C@H]2C1 | inactive: 3.54%
Nc1c(C(O)(C(F)(F)F)C(F)(F)F)ccc2ccccc12 | inactive: -1.74%
O=S(=O)(c1ccccc1)N1CCN(C(=S)NCCc2ccccc2)CC1 | inconclusive: 56.3%
CCN(CC)c1nc2c(c(=O)n(C)c(=O)n2C)n1CCCc1ccccc1 | inconclusive: 32.9%
C[C@@H](NC(=O)c1[nH]cnc1C(=O)Nc1cccc(Cl)c1)c1ccccc1 | inconclusive: 43.9%
Cc1cc(C)n(-c2cc(N3CCN(S(=O)(=O)c4ccc(Cl)cc4)CC3)ccc2[N+](=O)[O-])n1 | inconclusive: 49.8%
Clc1ccccc1-c1nnc2sc(-c3ccc(Br)o3)nn12 | inactive: 29.3%
C=CCn1cccc(C(=O)Nc2ccc(N(C)C)cc2)c1=O | inconclusive: 44.5%
O=[N+]([O-])c1ccc(COc2ncnc3ccccc23)cc1 | inactive: 1.22%

26 entries from above in another layout.
SMILES	activation
Cc1ccc(S(=O)(=O)N(CC(=O)Nc2cccc([N+](=O)[O-])c2)Cc2ccc(Cl)cc2)cc1	inconclusive: 34.8%
CSCCC(NC(=O)c1ccc(Cl)cc1Cl)C(=O)N1CCCCCCC1 (stereo unspecified)	inconclusive: 30.7%
CCOC(=O)C1=C(C)N(C)C(C)=C(C(=O)OCC)C1c1ccsc1	inconclusive: 36%
Cc1ccc(OCCCCn2ccnc2C)c(C)c1	inactive: 13.2%
C=CCCC(=O)Nc1nc(C)c(-c2csc(Nc3cccc(OC)c3)n2)s1	inactive: 0.917%
CCOC(=O)Cc1csc(NC(=O)c2ccc3ncsc3c2)n1	inconclusive: 40.2%
CCC(=O)Nc1nonc1-c1nc2ccccc2n1CC(C)C	inconclusive: 30.1%
COc1nc(-c2ccccc2)cc(-c2ccccc2)n1	inconclusive: 55.4%
O=C(CCCN1C(=O)/C(=C/c2ccccc2Cl)SC1=S)N1CCOCC1	inconclusive: 59.7%
Cc1n(C)c2cc(Cl)ccc2[n+]1Cc1ccccc1	inactive: 1.15%
Cc1c(C(=O)Nc2ccc(F)cc2)c2ccccn2c1CCc1ccncc1	inactive: -3.01%
COC(=O)C1(C)NC(c2ccc(O)cc2)C2C(=O)N(c3ccc4c(c3)OCCO4)C(=O)C21 (stereo unspecified)	inactive: -3.76%
COc1ccccc1CN(C)CC(=O)Nc1cccc2ccccc12	inconclusive: 54.5%
COC(=O)c1ccc(NC(=S)Nc2ccc(O)cc2)cc1	inactive: -3.17%
CCn1c(SCC(=O)Nc2ccc(F)cc2)nc2ccccc2c1=O	inconclusive: 49.2%
O=C(N/N=C/c1ccc(-c2cccc([N+](=O)[O-])c2)o1)c1ccccc1O	inactive: 2.69%
COc1ccc(CCNC(=O)CCOc2ccc(C)cc2)cc1OC	inconclusive: 40.4%
Cc1ccc(C)c(CSCc2nc3ccccc3[nH]2)c1	inconclusive: 77.2%
COC(=O)/C(N=Nc1cccc(C(F)(F)F)c1)=C(\C)O	inconclusive: 32.4%
O=C(NCc1nc2ccccc2[nH]1)C1=C[C@@H](c2ccccc2)C[C@@H](OCc2ccc(CO)cc2)O1	inactive: 14.2%
C=CCOC(=O)C(C#N)c1nc2ccccc2nc1N1CCN(Cc2ccccc2)CC1 (stereo unspecified)	inactive: 0.811%
CCN1CC=C2C(C#N)=C(N)C(C#N)(C#N)[C@H](c3cccc(OC)c3OC)[C@H]2C1	inactive: 3.54%
O=S(=O)(c1ccccc1)N1CCN(C(=S)NCCc2ccccc2)CC1	inconclusive: 56.3%
CCN(CC)c1nc2c(c(=O)n(C)c(=O)n2C)n1CCCc1ccccc1	inconclusive: 32.9%
C[C@@H](NC(=O)c1[nH]cnc1C(=O)Nc1cccc(Cl)c1)c1ccccc1	inconclusive: 43.9%
Clc1ccccc1-c1nnc2sc(-c3ccc(Br)o3)nn12	inactive: 29.3%

A second format for some results above:
CCN1CC=C2C(C#N)=C(N)C(C#N)(C#N)[C@H](c3cccc(OC)c3OC)[C@H]2C1
  activation: inactive: 3.54%
Nc1c(C(O)(C(F)(F)F)C(F)(F)F)ccc2ccccc12
  activation: inactive: -1.74%

Following part

SMILES | activation
Cc1ccc2c(c1)c(N=NC(N)=S)c(O)n2Cc1ccccc1 | inconclusive: 30%
COCCCNC(=S)Nc1c(C)cc(C)cc1C | inactive: -2.04%
COc1ccc(/C=N/NC(=O)c2cc3c(ccc4ccccc43)o2)c(OC)c1 | inactive: -2.15%
CC1CCc2nc(/C(C#N)=C/c3ccncc3)sc2C1 (stereo unspecified) | inconclusive: 48%
COc1ccccc1NC(=O)CSc1nnc(CNC(=O)c2ccco2)n1C | inconclusive: 65%
Cc1nc(/C(N)=N/OC(=O)c2c(-c3ccccc3Cl)noc2C)cs1 | inactive: 17.3%
O=C(NCc1ccc(Cl)cc1Cl)C1CC(=O)N(Cc2ccccc2)C1 (stereo unspecified) | inconclusive: 44.8%
COc1ccc(-c2cn(-c3ccc(C)cc3)c(=O)n2CC(=O)Nc2cccc(F)c2)cc1 | inconclusive: 33%
Cc1ccc2nc(-c3ccccc3)cc(C(=O)NCC3CCCO3)c2c1 (stereo unspecified) | inconclusive: 35.9%
CCOC(=O)c1ccc(NC(=O)c2cn(-c3ccccc3)nc2-c2ccncc2)cc1 | inactive: 2.94%
CCOC(=O)c1c(C)[nH]c(C(=O)OCC(=O)N(CC(C)C)C2CCS(=O)(=O)C2)c1C (stereo unspecified) | inactive: -4.44%
COc1cccc(CNC(=O)C23CN(Cc4ccccc4)CC2C(c2ccc([N+](=O)[O-])cc2)=NO3)c1 (stereo unspecified) | inactive: 0.015%
COC(=O)C1=C(C(=O)OC)[C@@H]2Nc3ccccc3[C@@]23C[C@@H](C(=O)OC)N(C(=O)c2ccc(Br)cc2)C3=N1 | inactive: 9.89%
Cc1cccc(C)c1NC(=S)NN(Cc1ccccc1)c1ccccc1 | inconclusive: 67.6%
Cc1nc2ccccn2c1-c1ccnn1S(=O)(=O)c1ccc(F)cc1 | inconclusive: 31.1%
O=C(COC(=O)CCc1nc2ccccc2s1)Nc1cccc(S(=O)(=O)N2CCOCC2)c1 | inactive: 7.04%
CCn1nc(NC(=O)C(C)C)c2cc3cccc(C)c3nc21 | inconclusive: 39.7%
O=C(NCCc1ccccc1)c1c(F)c(F)c(F)c(F)c1F | inconclusive: 66.5%
O=C(NC1CCCCC1)N(Cc1cc2cc3c(cc2[nH]c1=O)OCCO3)CC1CCCO1 (stereo unspecified) | inconclusive: 34.1%
CC(=O)Oc1cccc(NC(=O)c2ccc3c(c2)C(=O)N(CC(C)C)C3=O)c1 | inconclusive: 38.1%
COc1ccc(-c2cc(C(=O)OCC(=O)NC(C)(C)C)c3ccccc3n2)cc1 | inconclusive: 46.4%
CC(C)OC(=O)c1cccc(NC(=O)c2ccccc2)c1 | inconclusive: 61.8%

SMILES | activation
O=C(NCCCn1ccnc1)C(Cc1ccc([N+](=O)[O-])cc1)N1C(=O)c2ccccc2C1=O (stereo unspecified) | inactive: 1.06%
Cc1cccc2cc(/C=N/NC(=O)c3ccccc3O)c(Cl)nc12 | inconclusive: 44.8%
O=c1c2c(-c3ccccc3)ccnc2[nH]n1-c1ccccc1 | inconclusive: 65.2%
CC(C)C[C@H](NC(=O)c1[nH]cnc1C(=O)N[C@@H](C)C(=O)OC(C)(C)C)C(=O)OCc1ccccc1 | inconclusive: 61.2%
COc1ccc(CN(C)C(=O)c2cccc(S(=O)(=O)N3CCN(c4ccccc4)CC3)c2)c(OC)c1OC | inactive: -3.06%
CCOC(=O)/C=C/C(=O)Nc1ccc(Oc2ccccc2)cc1 | inconclusive: 64.2%
COc1ccc(C/C(N)=N/OC(=O)Cc2ccc(OC)c(OC)c2)cc1 | inconclusive: 47.4%
CCC(C(=O)OCC(=O)Nc1cccc(C(C)=O)c1)c1ccccc1 (stereo unspecified) | inconclusive: 39.5%
COc1ccccc1C(=O)NCCC(=O)NCCC12CC3CC(CC(C3)C1)C2 | inactive: -0.0722%
CCN(C(=O)/C=C/c1ccccc1)C1CCCCC1 | inconclusive: 48.4%
Cc1cc(NC(=O)/C=C/c2cccc(F)c2)n(-c2nc3ccccc3[nH]2)n1 | inconclusive: 46.4%
CC(C)(C)n1nnnc1C(c1ccc(C(F)(F)F)cc1)N(Cc1ccc(F)cc1)Cc1ccco1 (stereo unspecified) | inactive: 12.5%
CSc1ccccc1OCc1cc(C(=O)N(C)Cc2cc(C)[nH]n2)no1 | inconclusive: 41.1%
C=CCN1C(=O)/C(=C/c2ccc(N(C)C)cc2)S/C1=N\c1nnc(CC)s1 | inactive: 27.9%
CSCCC1NC2(C(=O)Nc3c2ccc(Cl)c3C)[C@@H]2C(=O)N(C3CCCC3)C(=O)[C@H]12 (stereo partly specified) | inconclusive: 64.4%
COc1ccc(C(=O)COc2ccccc2C#N)cc1 | inactive: 1.75%
COc1cccc(C2c3[nH]c4ccccc4c3CCN2Cc2cnc(C)s2)c1OC (stereo unspecified) | inactive: -0.321%
CCc1ccc(NC(=O)CCc2ccc(C)o2)cc1 | inconclusive: 31.6%
Cn1nc(C(=O)OCC(=O)N2CCc3ccccc32)c2ccccc2c1=O | inactive: -0.0193%
Cc1ccc(NC(=O)CSc2n[nH]c(-c3ccco3)n2)cc1 | inconclusive: 31.8%
